{
  "source": "PubChem BioAssay AID602441",
  "about": "(National Center for Advancing Translational Sciences (NCATS), 2012)",
  "note": "Screen size: about 1,300 compounds; fewer than 10 were called active. Inconclusive results (about 9%) are left out. Calls follow the shape of the dose curve; as a rule, active = well fitted curve in the direction sought with a large enough effect; inconclusive = small, poorly fitted or top-dose-only effect, or another doubt; inactive = no such curve, though single readings can be large or run the other way. Some of the results follow.",
  "data": [
    {"assay": "qHTS for antagonists of the Thyroid Stimulation Hormone Receptor: Hit Validation in Parental Cell Line; also: 0% is about no effect", "conditions": "parental HEK293 cells lacking TSHR, counter-screen; series mostly up to 56.9 µM; activity change, negative = inhibition: at the top concentration", "summary_of_the_method": "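Counterscreen in untransfected parental HEK-EM 293 cells. Lysate cAMP displaces cAMP-d2 from cryptate-tagged anti-cAMP antibody, and homogeneous TR-FRET is read at 665 nm with 337 nm excitation after stimulation.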", "values": [
      {"smiles": "Nc1nc(SCC(=O)C23CC4CC(CC(C4)C2)C3)n[nH]1", "activity change, negative = inhibition": "inactive: 2.65%"},
      {"smiles": "COc1cc(C(=S)N2CCCC2)ccc1OCc1ccc(C)cc1", "activity change, negative = inhibition": "inactive: 2.76%"},
      {"smiles": "COc1ccc(-c2csc(NC(=O)c3ccccc3NS(=O)(=O)c3ccc(F)c(F)c3)n2)cc1", "activity change, negative = inhibition": "inactive: -4.14%"},
      {"smiles": "COc1ccc(NC(=O)Cc2nc3ccccc3[nH]2)cc1", "activity change, negative = inhibition": "inactive: 5.8%"},
      {"smiles": "Cc1ccc(CSCCNC(=O)c2ccc(N(C)S(=O)(=O)c3ccccc3)cc2)cc1", "activity change, negative = inhibition": "inactive: -7.18%"},
      {"smiles": "Cc1ccc(NC(=O)CSc2nc3ncc(Br)cc3[nH]2)cc1C", "activity change, negative = inhibition": "inactive: 3.71%"},
      {"smiles": "O=C(CC1C(=O)NCCN1Cc1cccc(F)c1F)NCCCC1CCCC1", "note": "(stereo not drawn)", "activity change, negative = inhibition": "inactive: 5.04%"},
      {"smiles": "Cc1cc(C(=O)COC(=O)c2ccc(O)cc2O)c(C)n1-c1ccccc1", "activity change, negative = inhibition": "inactive: -6.58%"},
      {"smiles": "CC(C)Nc1ncnc2c1nnn2Cc1ccccc1", "activity change, negative = inhibition": "inactive: 4.9%"},
      {"smiles": "O=C(Cn1cnc2ccccc21)Nc1ccc2c(c1)OCCCO2", "activity change, negative = inhibition": "inactive: 1.89%"},
      {"smiles": "CCCSc1nsc(NC(=O)Nc2ccc(F)cc2F)n1", "activity change, negative = inhibition": "inactive: -9.12%"},
      {"smiles": "Cc1c(N=Nc2c(-c3ccc([N+](=O)[O-])cc3)[nH]n(C(N)=S)c2=O)cccc1[N+](=O)[O-]", "activity change, negative = inhibition": "inactive: -8.79%"},
      {"smiles": "O=S(=O)(Nc1ccc(O)c(Sc2nc3ccccc3s2)c1)c1cccc2ccccc12", "activity change, negative = inhibition": "inactive: 4%"},
      {"smiles": "COc1ccc(-n2ncc3c(N(C)C4CCCCC4)ncnc32)cc1", "activity change, negative = inhibition": "inactive: -4.15%"},
      {"smiles": "CCc1ccccc1NC(=O)CN1CCN(C(=O)CNC(=O)Cc2cccc3ccccc23)CC1", "activity change, negative = inhibition": "inactive: -1.42%"},
      {"smiles": "NS(=O)(=O)c1ccc(CCNC(=O)c2cc3ccccc3s2)cc1", "activity change, negative = inhibition": "inactive: 4.07%"},
      {"smiles": "CCc1nnc(NS(=O)(=O)c2ccc(NC(=O)COc3ccc4ccccc4c3)cc2)s1", "activity change, negative = inhibition": "inactive: 2.91%"},
      {"smiles": "Cc1ccc(-c2csc(N(CCO)CCCn3c(C(F)(F)F)nc4ccccc43)n2)cc1", "activity change, negative = inhibition": "inactive: -1.09%"},
      {"smiles": "CCOC(=O)c1[nH]c2cc(OC)c(OC)cc2c1NC(=O)c1ccc2c(c1)OCO2", "activity change, negative = inhibition": "inactive: -2.56%"},
      {"smiles": "N#Cc1nc(Cc2cccc3ccccc23)oc1NCc1ccc2c(c1)OCO2", "activity change, negative = inhibition": "inactive: -0.416%"},
      {"smiles": "CCN(c1ccc(OC)cc1)S(=O)(=O)c1cc(-c2cc(C)no2)ccc1C(C)C", "activity change, negative = inhibition": "inactive: -0.725%"},
      {"smiles": "O=S(=O)(Nc1cc(Cl)ccc1-n1cncn1)c1cc(Br)ccc1Br", "activity change, negative = inhibition": "inactive: -8.15%"},
      {"smiles": "CC1CCc2c(sc(NC(=O)c3ccco3)c2C(=O)O)C1", "note": "(stereo not drawn)", "activity change, negative = inhibition": "inactive: -9.53%"},
      {"smiles": "Cc1ccc(NC(=O)c2cccc(OCc3c(C)noc3C)c2)cc1S(=O)(=O)Nc1ccccc1Cl", "activity change, negative = inhibition": "inactive: -4.87%"},
      {"smiles": "Cc1ccc(-c2nnc(SCC(=O)NC3CCCC3)n2C)cc1", "activity change, negative = inhibition": "inactive: 0.0639%"},
      {"smiles": "Cc1c(Cl)sn(-c2ccc(Cl)cc2)c1=O", "activity change, negative = inhibition": "inactive: -6.46%"},
      {"smiles": "COCCNC(=O)CN1C(=O)c2cccc3cccc1c23", "activity change, negative = inhibition": "inactive: 5.65%"},
      {"smiles": "CC(C)C(C)NC(=O)COc1ccc(Sc2ccc(OCC(=O)NC(C)C(C)C)cc2)cc1", "note": "(stereo not drawn)", "activity change, negative = inhibition": "inactive: -0.802%"},
      {"smiles": "O=C1CCCN1c1ccc(S(=O)(=O)Oc2ccc(Cl)cc2)cc1[N+](=O)[O-]", "activity change, negative = inhibition": "inactive: -5%"},
      {"smiles": "COc1ccc(S(=O)(=O)N2CCOC23CCN(C(=O)c2ccc(Cl)cc2Cl)CC3)cc1", "activity change, negative = inhibition": "inactive: -0.861%"},
      {"smiles": "O=C(NCCCCc1ccccc1)NC[C@@H]1CC[C@@H](Cc2ccc(-c3ccccc3)cc2)O1", "activity change, negative = inhibition": "inactive: -0.99%"},
      {"smiles": "COc1cccc(CN(C)C(=O)c2ccc(OCC(=O)Nc3cccc(C(F)(F)F)c3)c(OC)c2)c1", "activity change, negative = inhibition": "inactive: -2.52%"},
      {"smiles": "Oc1ccc(Cl)cc1Cc1cc(Cl)ccc1O", "activity change, negative = inhibition": "inactive: 0.71%"},
      {"smiles": "Cc1ccc(CNC(=O)c2ccccc2NS(=O)(=O)c2ccc(Cl)nc2)cc1", "activity change, negative = inhibition": "inactive: 3.12%"},
      {"smiles": "CN(Cc1ccccc1Cl)C(=O)c1cc2ccccc2o1", "activity change, negative = inhibition": "inactive: -0.037%"},
      {"smiles": "CN(C(=O)CN1C(=O)/C(=C/c2ccccc2Cl)SC1=S)C1CCS(=O)(=O)C1", "note": "(stereo not drawn)", "activity change, negative = inhibition": "inactive: 0.836%"},
      {"smiles": "COc1ccc(OC)c(C2=NOC(C(=O)NCC3CCCO3)C2)c1", "note": "(stereo not drawn)", "activity change, negative = inhibition": "inactive: 5.95%"},
      {"smiles": "O=C(NCCC1=CCCCC1)C(=O)NCC1OCCCN1S(=O)(=O)c1ccccc1", "note": "(stereo not drawn)", "activity change, negative = inhibition": "inactive: 3.03%"},
      {"smiles": "COc1cccc(CNC(=O)CCCC(=O)NC(C)CCc2ccccc2)c1", "note": "(stereo not drawn)", "activity change, negative = inhibition": "inactive: 0.179%"},
      {"smiles": "COc1ccc(N2CCN(C(c3nnnn3CCc3ccccc3)C(C)C)CC2)cc1", "note": "(stereo not drawn)", "activity change, negative = inhibition": "inactive: -0.513%"},
      {"smiles": "Cc1ccc(-c2nc3ccc(C(=O)O)cc3nc2-c2ccc(C)cc2)cc1", "activity change, negative = inhibition": "inactive: -2.47%"},
      {"smiles": "CCC1CCCCN1S(=O)(=O)c1ccc(NC(=O)c2nc(S(C)(=O)=O)ncc2Cl)cc1", "note": "(stereo not drawn)", "activity change, negative = inhibition": "inactive: -9.43%"},
      {"smiles": "CCCNc1c(NS(=O)(=O)c2ccc(Br)cc2)c(=O)oc2ccccc12", "activity change, negative = inhibition": "inactive: 3.82%"},
      {"smiles": "COc1ccccc1C1CCN(c2cc(O)ccc2[N+](=O)[O-])CC1", "activity change, negative = inhibition": "inactive: 0.193%"},
      {"smiles": "CCOC(=O)c1c(NC(=O)CN2C(=O)NC(C)(c3ccc(OC(F)F)cc3)C2=O)sc(C)c1C", "note": "(stereo not drawn)", "activity change, negative = inhibition": "inactive: 1.99%"},
      {"smiles": "Cc1ccc(NC(=O)CCc2nnc3ccc(NCc4ccco4)nn23)nc1", "activity change, negative = inhibition": "inactive: 6.29%"},
      {"smiles": "COc1ccc(Cl)cc1NC(=O)C1CCN(C(=O)C2CC(=O)N(c3ccc(C)cc3)C2)CC1", "note": "(stereo not drawn)", "activity change, negative = inhibition": "inactive: 3.1%"},
      {"smiles": "O=C(NNC(=O)c1n[nH]c(=O)c2ccccc12)c1ccc(Br)cc1", "activity change, negative = inhibition": "inactive: 0.78%"},
      {"smiles": "CC(=O)N1c2ccc(S(=O)(=O)N(C)CC(=O)N(C)Cc3ccccc3)cc2CC1C", "note": "(stereo not drawn)", "activity change, negative = inhibition": "inactive: 5.15%"},
      {"smiles": "Cc1ccc(S(=O)(=O)NCCNc2ccc([N+](=O)[O-])cc2)cc1", "activity change, negative = inhibition": "inactive: 1.78%"},
      {"smiles": "COc1cc(OC)c(NC(=O)Cn2cnc3sc(C)c(S(=O)(=O)N4CCOCC4)c3c2=O)cc1Cl", "activity change, negative = inhibition": "inactive: 0.564%"},
      {"smiles": "COC(=O)CN(c1ccc(C)cc1)S(=O)(=O)c1ccc2c(c1)n(C)c(=O)c(=O)n2C", "activity change, negative = inhibition": "inactive: 3.7%"},
      {"smiles": "O=C(COC(=O)C12CC3CC(CC(Br)(C3)C1)C2)Nc1cccc(S(=O)(=O)N2CCOCC2)c1", "activity change, negative = inhibition": "inactive: -3.32%"},
      {"smiles": "CCOc1ccc(CNC(=O)CCCn2nc(CC)n3c(cc4occc43)c2=O)cc1", "activity change, negative = inhibition": "inactive: 3.35%"},
      {"smiles": "O=S(=O)(NCc1csc(-c2ccccc2)n1)c1ccc(Cl)s1", "activity change, negative = inhibition": "inactive: 3.27%"},
      {"smiles": "COc1cc(/C=C(\\C#N)c2ccccn2)ccc1OCc1ccc(Cl)cc1", "activity change, negative = inhibition": "inactive: -3.7%"},
      {"smiles": "CCC1Sc2ccc(S(=O)(=O)CCC(=O)Nc3ccccc3Cl)cc2NC1=O", "note": "(stereo not drawn)", "activity change, negative = inhibition": "inactive: 2.79%"},
      {"smiles": "COC(=O)c1ccc(CN2C(=O)NC(Cc3c[nH]c4ccccc34)C2=O)cc1", "note": "(stereo not drawn)", "activity change, negative = inhibition": "inactive: 2.98%"},
      {"smiles": "Cc1ccc(C(=O)NCCNc2ncc(C(F)(F)F)cc2Cl)cc1[N+](=O)[O-]", "activity change, negative = inhibition": "inactive: 2.51%"},
      {"smiles": "Cc1ccc(S(=O)(=O)Oc2ccc(/C=C(/NC(=O)c3ccccc3)C(=O)Nc3ccccc3)cc2)cc1", "activity change, negative = inhibition": "inactive: 1.91%"},
      {"smiles": "O=S(=O)(c1ccc(Cl)cc1)N1CCN(c2ncnc3sccc23)CC1", "activity change, negative = inhibition": "inactive: -4.26%"},
      {"smiles": "Brc1ccc(CNc2ccc3ncccc3c2)cc1", "activity change, negative = inhibition": "inactive: 0.294%"},
      {"smiles": "CCN1C(=NCc2ccc(OC)cc2)N[C@@H](CCc2ccccc2)[C@H](C(=O)NCc2ccc(OC)cc2)[C@H]1C", "activity change, negative = inhibition": "inactive: -1.38%"}
    ]}
  ]
}
